# Assay results

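A panel of P. falciparum strains inside erythrocytes is exposed to compounds for three days, then a DNA-binding dye reports the amount of parasite DNA. Each compound was titrated across a series from about 0.000037 to 29 µM. The number is the fitted AC50, the concentration giving a half-maximal change in signal; a lower value means higher potency, whether the curve shows a decrease or an increase. Calls follow the curve class and fit quality: every row here is inconclusive, covering signal-raising curves and weak, poorly fitted, partial or highest-dose-only inhibition curves.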

Values are in µM. All entries here are filed as inconclusive. These entries are mostly ones the record files as inconclusive; other results of the assay are not listed here. A potency from a partial, single-point or poor curve is only a rough figure. Some entries filed as inconclusive have a full curve. The first word of each remark tells which way the curve ran; it can be opposite to the aim of the assay.

Compound	tested on / at	potency (µM)	curve
CCCCC(C)(O)C/C=C/[C@H]1[C@H](O)CC(=O)[C@@H]1CCCCCCC(=O)OC (stereo partly specified)	CP215	21.33	inhibitor, partial curve, poor fit
COc1c(O[C@H]2O[C@@H](CO)[C@@H](O)[C@@H](O)[C@@H]2O)cc2c(c1OC)-c1ccc(SC)c(=O)cc1[C@H](NC(C)=O)CC2	CP260	7.08	inhibitor, single point
NCC1CCC(N)C(O[C@@H]2C(O)[C@H](O[C@H]3OC(CO)C(O)C(N)C3O)[C@@H](N)C[C@H]2N)O1 (stereo partly specified)	W2	13.46	inhibitor, single point
NCC1CCC(N)C(O[C@@H]2C(O)[C@H](O[C@H]3OC(CO)C(O)C(N)C3O)[C@@H](N)C[C@H]2N)O1 (stereo partly specified)	7G8	10	inhibitor, single point
CC=CC1=C(C(=O)O)N2C(=O)[C@H](NC(=O)[C@H](N)c3ccc(O)cc3)[C@@H]2SC1	DIV17	0.0027	inhibitor, full curve, poor fit
CCCC[C@H](CC)CN1CN(C[C@@H](CC)CCCC)CC(C)(N)C1	CP286	7.943	inhibitor, single point
CCCC[C@H](CC)CN1CN(C[C@@H](CC)CCCC)CC(C)(N)C1	CP237	10	inhibitor, single point
O[C@@H]([C@H](O)[C@H](O)CBr)[C@H](O)CBr	CP256	12.59	inhibitor, single point
O=C(O)CCC(=O)C(=O)O	TAB165	3.981	inhibitor, single point
O=C(O)CCC(=O)C(=O)O	CP291	21.33	inhibitor, partial curve, poor fit
COc1cc(NS(=O)(=O)c2ccc(N)cc2)ncn1	DIV17	0.0002	activator, full curve
NS(=O)(=O)c1cc2c(cc1Cl)N[C@@H](C(Cl)Cl)NS2(=O)=O	W2	0.4053	inhibitor, full curve, poor fit
C=CCc1ccc(O)c(OC)c1	P93_24	3.981	inhibitor, single point
Cc1cnc(NC(=O)C2C(=O)c3ccccc3S(=O)(=O)N2C)s1 (stereo unspecified)	TAB165	14.13	inhibitor, partial curve, poor fit
O=C1OC(CO)C(O)C(O)C1O (stereo unspecified)	P93_24	3.981	inhibitor, single point
CN1C[C@H](C(=O)N[C@]2(C)O[C@@]3(O)[C@@H]4CCCN4C(=O)[C@H](Cc4ccccc4)N3C2=O)C=C2c3cccc4[nH]cc(c34)C[C@H]21	CP266	12	inhibitor, single point
O=C(O)Cc1cccc2ccccc12	CP335	4.256	inhibitor, single point
CCCNCC(O)COc1ccccc1C(=O)CCc1ccccc1 (stereo unspecified)	DIV14	0.9528	inhibitor, full curve, poor fit
NS(=O)(=O)c1cc2c(cc1Cl)NC=NS2(=O)=O	TAB165	4.467	inhibitor, partial curve, poor fit
COc1ccc(-c2ccc3cc(C(=O)O)ccc3c2)cc1C12CC3CC(CC(C3)C1)C2	ATS95	10	inhibitor, single point
Cc1ccc(O)c([C@H](CCN(C(C)C)C(C)C)c2ccccc2)c1	CP297	8.492	inhibitor, partial curve, poor fit
Nc1cc(C(Cl)=C(Cl)Cl)c(S(N)(=O)=O)cc1S(N)(=O)=O	AS120	1.585	inhibitor, single point
Cc1ccc(Cl)c(Nc2ccccc2C(=O)O)c1Cl	CP237	3.162	inhibitor, single point
CCC1(c2ccccc2)C(=O)NC(=O)N(C(=O)c2ccccc2)C1=O (stereo unspecified)	DIV17	12	inhibitor, partial curve, poor fit
CCC1(c2ccccc2)C(=O)NC(=O)N(C(=O)c2ccccc2)C1=O (stereo unspecified)	CP191	11.22	inhibitor, single point
CCC1(c2ccccc2)C(=O)NC(=O)N(C(=O)c2ccccc2)C1=O (stereo unspecified)	CP247	5.623	inhibitor, partial curve
CC(C)NCC(O)c1ccc(N)c(C#N)c1 (stereo unspecified)	PC26	0.0953	inhibitor, partial curve, poor fit
[O]=[Bi][O]C(=O)[O][Bi]=[O]	ICS	3.981	inhibitor, single point
O=C(O)CN1C(=O)c2cccc3cccc(c23)C1=O	GB4	16.94	inhibitor, single point
C[C@H](Cn1cnc2c(N)ncnc21)OCP(=O)(O)O	CP260	17.78	inhibitor, single point
O=C(O)C(O)c1ccccc1 (stereo unspecified)	CP256	17.78	inhibitor, single point
COc1cc(CNC(=O)CCCC/C=C/C(C)C)ccc1O	DIV30	1.069	inhibitor, partial curve, poor fit
O=C(Nc1cccc(C2=NCCN2)c1)Nc1cccc(C2=NCCN2)c1	CP265	5.623	inhibitor, partial curve, poor fit
CC(C)[N+](C)(CCC(C(N)=O)(c1ccccc1)c1ccccc1)C(C)C	7G8	7.08	inhibitor, single point
CCCc1cc(C(N)=S)ccn1	CP297	4.256	inhibitor, single point
NC(=O)NS(=O)(=O)c1ccc(N)cc1	ICS	3.981	inhibitor, single point

Some entries from above, unchanged:

Compound	tested on / at	potency (µM)	curve
CN1C[C@H](C(=O)N[C@]2(C)O[C@@]3(O)[C@@H]4CCCN4C(=O)[C@H](Cc4ccccc4)N3C2=O)C=C2c3cccc4[nH]cc(c34)C[C@H]21	CP266	12	inhibitor, single point
NCC1CCC(N)C(O[C@@H]2C(O)[C@H](O[C@H]3OC(CO)C(O)C(N)C3O)[C@@H](N)C[C@H]2N)O1 (stereo partly specified)	7G8	10	inhibitor, single point
C=CCc1ccc(O)c(OC)c1	P93_24	3.981	inhibitor, single point
C[C@H](Cn1cnc2c(N)ncnc21)OCP(=O)(O)O	CP260	17.78	inhibitor, single point

The results are deposited in PubChem (AID504749; NCATS, 2011).